Measurements reported in article PMC9867983.
Results are given in words; binding and its absence hold for the method and conditions named. Binding seen in cells or lysates may run through a third protein. Some binding calls cover weakened binding; strength is not graded here. Tags and fused reporters may be left off the sequences shown.

T1: mitofusin-2 (MFN2), endogenous (human (endogenous in HeLa and A549)), O95140
T1 chain: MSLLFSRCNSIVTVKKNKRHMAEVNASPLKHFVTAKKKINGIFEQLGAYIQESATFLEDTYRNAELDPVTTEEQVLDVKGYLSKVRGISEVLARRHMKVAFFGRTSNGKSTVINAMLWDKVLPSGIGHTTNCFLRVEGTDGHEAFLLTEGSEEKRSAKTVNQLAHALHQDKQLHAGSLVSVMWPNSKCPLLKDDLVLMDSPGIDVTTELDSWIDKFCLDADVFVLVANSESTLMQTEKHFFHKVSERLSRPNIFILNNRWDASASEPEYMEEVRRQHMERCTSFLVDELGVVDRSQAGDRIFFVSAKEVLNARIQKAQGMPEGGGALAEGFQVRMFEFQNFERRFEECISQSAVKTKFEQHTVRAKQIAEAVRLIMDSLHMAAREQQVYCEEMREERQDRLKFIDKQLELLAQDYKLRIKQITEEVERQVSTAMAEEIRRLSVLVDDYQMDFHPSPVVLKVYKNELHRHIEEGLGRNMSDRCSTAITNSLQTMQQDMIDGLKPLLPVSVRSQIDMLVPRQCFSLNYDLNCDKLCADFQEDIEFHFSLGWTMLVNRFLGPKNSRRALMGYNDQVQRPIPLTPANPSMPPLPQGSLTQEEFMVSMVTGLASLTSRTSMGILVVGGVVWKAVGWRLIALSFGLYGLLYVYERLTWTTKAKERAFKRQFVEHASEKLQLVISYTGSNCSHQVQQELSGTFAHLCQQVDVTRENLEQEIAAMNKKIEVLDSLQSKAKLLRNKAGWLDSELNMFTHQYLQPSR

T2: exogenous tagged MFN2 (Flag-MFN2 and MFN2-HA) (human), O95140
T2 chain: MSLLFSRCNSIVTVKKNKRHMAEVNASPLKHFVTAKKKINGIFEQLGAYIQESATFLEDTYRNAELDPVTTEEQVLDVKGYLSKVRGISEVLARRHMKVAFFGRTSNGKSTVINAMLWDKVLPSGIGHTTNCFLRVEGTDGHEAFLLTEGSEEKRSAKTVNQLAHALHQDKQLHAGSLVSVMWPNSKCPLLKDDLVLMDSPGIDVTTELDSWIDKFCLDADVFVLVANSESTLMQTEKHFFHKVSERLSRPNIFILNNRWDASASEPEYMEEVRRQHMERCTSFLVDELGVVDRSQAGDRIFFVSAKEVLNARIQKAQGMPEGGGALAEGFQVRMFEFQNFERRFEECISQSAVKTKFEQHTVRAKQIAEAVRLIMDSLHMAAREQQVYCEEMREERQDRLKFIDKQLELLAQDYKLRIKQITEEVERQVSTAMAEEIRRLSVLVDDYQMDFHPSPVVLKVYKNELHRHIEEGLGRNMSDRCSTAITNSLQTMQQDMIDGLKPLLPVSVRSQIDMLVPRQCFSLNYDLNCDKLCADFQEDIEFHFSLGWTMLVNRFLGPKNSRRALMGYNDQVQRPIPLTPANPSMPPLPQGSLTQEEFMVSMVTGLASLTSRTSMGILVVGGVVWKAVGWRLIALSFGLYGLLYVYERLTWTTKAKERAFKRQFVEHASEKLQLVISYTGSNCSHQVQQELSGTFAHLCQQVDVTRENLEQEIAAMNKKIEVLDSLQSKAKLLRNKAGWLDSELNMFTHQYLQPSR


Columns and labels:
[1] = molecular target: T1, mitofusin-2 (MFN2), endogenous (human …); test: co-IP; anti-MFN2 immunoprecipitation from HeLa and A549 lysates (NETN buffer: 50 mM Tris-HCl pH 8.0, 150 mM NaCl, 1% NP-40, 1 mM EDTA; 4 °C), Western blot of MFN1; IgG as negative control; cells with HITT overexpression (also in doses, full length or fragments), HITT knock-down, 3 h UV treatment or MiR-205 overexpression; settings: remark: other sources report otherwise
[2] = molecular target: T2, exogenous tagged MFN2 (Flag-MFN2 and …); test: co-IP; immunoprecipitation by tag from lysates of cells transfected with Flag- and HA-tagged MFN1/MFN2 constructs (NETN buffer, 4 °C), Western blot of the other tagged copy; with or without HITT overexpression; IgG as negative control; settings: remark: other sources report otherwise

Row | binding [1] | binding [2] | Binder
1 | binds | – | mitofusin-1 (MFN1), endogenous, Q8IWA4 1-741 (protein) MAEPVSPLKHFVLAKKAITAIFDQLLEFVTEGSHFVEATYKNPELDRIATEDDLVEMQGYKDKLSIIGEVLSRRHMKVAFFGRTSSGKSSVINAMLWDKVLPSGIGHITNCFLSVEGTDGDKAYLMTEGSDEKKSVKTVNQLAHALHMDKDLKAGCLVRVFWPKAKCALLRDDLVLVDSPGTDVTTELDSWIDKFCLDADVFVLVANSESTLMNTEKHFFHKVNERLSKPNIFILNNRWDASASEPEYMEDVRRQHMERCLHFLVEELKVVNALEAQNRIFFVSAKEVLSARKQKAQGMPESGVALAEGFHARLQEFQNFEQIFEECISQSAVKTKFEQHTIRAKQILATVKNIMDSVNLAAEDKRHYSVEEREDQIDRLDFIRNQMNLLTLDVKKKIKEVTEEVANKVSCAMTDEICRLSVLVDEFCSEFHPNPDVLKIYKSELNKHIEDGMGRNLADRCTDEVNALVLQTQQEIIENLKPLLPAGIQDKLHTLIPCKKFDLSYNLNYHKLCSDFQEDIVFRFSLGWSSLVHRFLGPRNAQRVLLGLSEPIFQLPRSLASTPTAPTTPATPDNASQEELMITLVTGLASVTSRTSMGIIIVGGVIWKTIGWKLLSVSLTMYGALYLYERLSWTTHAKERAFKQQFVNYATEKLRMIVSSTSANCSHQVKQQIATTFARLCQQVDITQKQLEEEIARLPKEIDQLEKIQNNSKLLRNKAVQLENELENFTKQFLPSSNEES
2 | – | binds | exogenous tagged MFN1 (Flag-MFN1 and MFN1-HA), Q8IWA4 1-741 (protein) MAEPVSPLKHFVLAKKAITAIFDQLLEFVTEGSHFVEATYKNPELDRIATEDDLVEMQGYKDKLSIIGEVLSRRHMKVAFFGRTSSGKSSVINAMLWDKVLPSGIGHITNCFLSVEGTDGDKAYLMTEGSDEKKSVKTVNQLAHALHMDKDLKAGCLVRVFWPKAKCALLRDDLVLVDSPGTDVTTELDSWIDKFCLDADVFVLVANSESTLMNTEKHFFHKVNERLSKPNIFILNNRWDASASEPEYMEDVRRQHMERCLHFLVEELKVVNALEAQNRIFFVSAKEVLSARKQKAQGMPESGVALAEGFHARLQEFQNFEQIFEECISQSAVKTKFEQHTIRAKQILATVKNIMDSVNLAAEDKRHYSVEEREDQIDRLDFIRNQMNLLTLDVKKKIKEVTEEVANKVSCAMTDEICRLSVLVDEFCSEFHPNPDVLKIYKSELNKHIEDGMGRNLADRCTDEVNALVLQTQQEIIENLKPLLPAGIQDKLHTLIPCKKFDLSYNLNYHKLCSDFQEDIVFRFSLGWSSLVHRFLGPRNAQRVLLGLSEPIFQLPRSLASTPTAPTTPATPDNASQEELMITLVTGLASVTSRTSMGIIIVGGVIWKTIGWKLLSVSLTMYGALYLYERLSWTTHAKERAFKQQFVNYATEKLRMIVSSTSANCSHQVKQQIATTFARLCQQVDITQKQLEEEIARLPKEIDQLEKIQNNSKLLRNKAVQLENELENFTKQFLPSSNEES
3 | – | binds | exogenous tagged MFN2 (Flag-MFN2 and MFN2-HA), O95140 1-757 (protein) MSLLFSRCNSIVTVKKNKRHMAEVNASPLKHFVTAKKKINGIFEQLGAYIQESATFLEDTYRNAELDPVTTEEQVLDVKGYLSKVRGISEVLARRHMKVAFFGRTSNGKSTVINAMLWDKVLPSGIGHTTNCFLRVEGTDGHEAFLLTEGSEEKRSAKTVNQLAHALHQDKQLHAGSLVSVMWPNSKCPLLKDDLVLMDSPGIDVTTELDSWIDKFCLDADVFVLVANSESTLMQTEKHFFHKVSERLSRPNIFILNNRWDASASEPEYMEEVRRQHMERCTSFLVDELGVVDRSQAGDRIFFVSAKEVLNARIQKAQGMPEGGGALAEGFQVRMFEFQNFERRFEECISQSAVKTKFEQHTVRAKQIAEAVRLIMDSLHMAAREQQVYCEEMREERQDRLKFIDKQLELLAQDYKLRIKQITEEVERQVSTAMAEEIRRLSVLVDDYQMDFHPSPVVLKVYKNELHRHIEEGLGRNMSDRCSTAITNSLQTMQQDMIDGLKPLLPVSVRSQIDMLVPRQCFSLNYDLNCDKLCADFQEDIEFHFSLGWTMLVNRFLGPKNSRRALMGYNDQVQRPIPLTPANPSMPPLPQGSLTQEEFMVSMVTGLASLTSRTSMGILVVGGVVWKAVGWRLIALSFGLYGLLYVYERLTWTTKAKERAFKRQFVEHASEKLQLVISYTGSNCSHQVQQELSGTFAHLCQQVDVTRENLEQEIAAMNKKIEVLDSLQSKAKLLRNKAGWLDSELNMFTHQYLQPSR
